Measured values from patent US8029920B2, “1,3,5-tris(diarylamino)benzenes and use thereof” (Bando Chemical Industries, Ltd, priority 2006, dated 2011).

Test: Organic electroluminescence element with the substance as hole transporting layer
Details: for energy efficiency / current efficiency: current density 25 mA/cm^2; for current efficiency: hole transporting layer 10 nm, CuPC/Alq3/LiF/Al element; for luminance half-life period: driving time to half the initial luminance of 1000 cd/m^2

| Compound | maximum luminance [cd/m^2] | energy efficiency [lm/W] | current efficiency [cd/A] | luminance half-life period [days] |
| --- | --- | --- | --- | --- |
| c1ccc(N(c2ccc(-c3ccc(N(c4ccccc4)c4cccc5ccccc45)cc3)cc2)c2cccc3ccccc23)cc1 [α-NPD, 4,4′-bis(N-(1-naphthyl)-N-phenylamino)-biphenyl, reference compound] | 28710 | 2.2 | 4.0 | 334.1 |
| Cc1ccc(-c2ccc(N(c3ccc(-c4ccc(C)cc4)cc3)c3cc(N(c4ccc(C)cc4)c4ccc(C)cc4)cc(N(c4ccc(-c5ccc(C)cc5)cc4)c4ccc(-c5ccc(C)cc5)cc4)c3)cc2)cc1 [compound (3), N,N,N′,N′-tetrakis(4′-methyl-4-biphenylyl)-N″,N″-bis(4-methylphenyl)benzene-1,3,5-triamine] | 33239 | 3.4 | 5.4 | 594 |
| Cc1ccc(N(c2ccc(C)cc2)c2cc(N(c3ccc(-c4ccccc4)cc3)c3ccc(-c4ccccc4)cc3)cc(N(c3ccc(-c4ccccc4)cc3)c3ccc(-c4ccccc4)cc3)c2)cc1 [compound (4), N,N,N′,N′-tetrakis(4-biphenylyl)-N″,N″-bis(4-methylphenyl)benzene-1,3,5-triamine] | 32910 | 3.3 | 5.2 | 660.92 |
